The values below come from article PMC5996148.

Values joined by “and” are separate entries in the source; they are usually repeats but may differ in a detail not shown here. Identical values can stand only once. The list shows a part of the results. For some of these results: The exact form of the protein is not confirmed.

Assay in all cases: protein microarray (ProtoArray v5.0), streptavidin-Alexa Fluor 647
Holding throughout (details): 3'-biotin; 20 mM Tris (pH 7.5), 5 mM MgCl2, 100 mM KCl, 0.1% Tween-20, A/T-rich and random oligonucleotide blockers; temperature not stated; high values mean tight binding

Assay [1] relates to RAB3C (human).
Assay [2] addresses T1, RAB9A (UniProt P51151).
T1 sequence: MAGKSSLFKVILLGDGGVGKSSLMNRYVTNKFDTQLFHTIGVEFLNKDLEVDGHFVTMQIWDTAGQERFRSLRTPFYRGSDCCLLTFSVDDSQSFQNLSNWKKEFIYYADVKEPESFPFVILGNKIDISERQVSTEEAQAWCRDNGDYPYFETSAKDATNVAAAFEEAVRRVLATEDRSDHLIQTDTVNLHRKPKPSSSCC

Assay [3] concerns RABEP2 (human).
For assay [4], the system named is RABL5 (human).
Assay [5] has as its target T2, RAD51AP1 (UniProt Q96B01).
T2 sequence: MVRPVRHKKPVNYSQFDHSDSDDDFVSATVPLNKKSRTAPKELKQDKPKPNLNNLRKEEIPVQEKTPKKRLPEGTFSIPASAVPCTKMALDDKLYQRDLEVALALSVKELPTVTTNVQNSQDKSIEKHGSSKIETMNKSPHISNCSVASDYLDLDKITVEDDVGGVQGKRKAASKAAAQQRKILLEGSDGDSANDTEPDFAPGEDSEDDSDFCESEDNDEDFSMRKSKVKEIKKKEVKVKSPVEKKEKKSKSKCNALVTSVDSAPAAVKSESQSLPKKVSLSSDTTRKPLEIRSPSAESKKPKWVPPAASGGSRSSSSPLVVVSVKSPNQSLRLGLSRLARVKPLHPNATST

For assay [6], the system named is RAP1GDS1 (human).
Assay [7] concerns RAP2C (human).
In assay [8] the test system is RASGRP3 (human).
Assay [9] relates to RBM33 (human).
Assay [10] deals with RBM9 (human).

On to “GGTGACAGGGGTATGGGGAGGGG [G4-2 biotinylated (Ct1)]”, for which the binding signal was -0.384 z-score in assay [1]; -0.383 z-score in [2]; -0.39 z-score in assay [3]; -0.389 z-score in [4]; 6.79 z-score in assay [5]; -0.402 z-score and -0.399 z-score in assay [6]. Moreover, the binding signal is -0.367 z-score in [7], -0.384 z-score in assay [8], -0.367 z-score in [9] and -0.387 z-score in [10].
